Source: PubChem BioAssay AID540256 (National Center for Advancing Translational Sciences (NCATS), 2011)
Screen size: about 300,000 compounds; about 3,700 (1.2%) were called active. The shares of active, inactive and inconclusive entries below differ from those in the screen. The call rests on the fitted dose curve; tested in HEK293 cells. Potencies beside an inconclusive call are fits to weak or partial responses and may not hold up.

Assay: qHTS for Inhibitors of binding or entry into cells for Lassa Virus; further: nearly all actives have a fitted effect of over 50% in size
Conditions: Lassa virus pseudotype entry inhibition, cell reporter; activity change, negative = inhibition: at 37.9 µM (top of the series) unless noted
On the % scale 0 is the no-effect control and ±100 the full control effect; potency means the concentration at half of the fitted maximal effect.

SMILES	activity change, negative = inhibition	Potency
CCOC(=O)C(NC(=O)c1ccccc1)C(C)(C)SCc1ccccc1 (configuration not stated)	inactive: -27.6%	–
CC(=O)SC(C)CC(=O)NCc1ccccc1 (configuration not stated)	inactive: 11.9%	–
O=C(Nc1cc([N+](=O)[O-])ccc1N1CCOCC1)c1ccco1	–	inconclusive: 10 µM [inhibitor, partial curve, poor fit]
Cc1cc(C(=O)N2CCCC(C(=O)c3ccc4ccccc4c3)C2)nn1C (configuration not stated)	–	inconclusive: 11.2 µM [inhibitor, partial curve, poor fit]
Cn1c(C(=O)OC(C(=O)NCc2ccco2)c2ccncc2)cc2sccc21 (configuration not stated)	–	inconclusive: 1.16 µM [inhibitor, full curve, poor fit]
CCCNC(=O)c1ccc2c(c1)nc(C)n2-c1cccc(C)c1	–	inconclusive: 7.94 µM [inhibitor, full curve, poor fit]
Cc1ccc2c(=O)c(C(=O)c3ccccc3)cn(CC(=O)Nc3ccc(C)c(Cl)c3)c2n1	inactive: 3.32% [at 46.1 µM]	–
CCOC(=O)Cn1ncc2c(=O)oc3ccccc3c21	–	inconclusive: 0.708 µM [inhibitor, single point]
CCC(Sc1ncccc1C(=O)Oc1ccccc1Cl)C(=O)Nc1ccccc1OC (configuration not stated)	inactive: 24.2% [at 46.1 µM]	–
Cc1ccccc1Nc1ccc([N+](=O)[O-])cn1	–	inconclusive: 5.62 µM [inhibitor, single point]
CCOC(=O)COc1cc(Br)c(/C=N/Nc2ccccc2)cc1OC	–	inconclusive: 7.08 µM [inhibitor, partial curve, poor fit]
COc1ccc(OCCCn2cc(/C=C3/C(=N)N4C=C(C)SC4=NC3=O)c3ccccc32)cc1	–	inconclusive: 2.31 µM [activator, partial curve, poor fit]
O=C(CN1C(=O)NC(Cc2c[nH]c3ccccc23)C1=O)Nc1ccc(F)cc1F (configuration not stated)	–	inconclusive: 1.26 µM [inhibitor, single point]
O=C(CN1CCN(c2ccccc2)CC1)Nc1cccc(C(F)(F)F)c1	–	inconclusive: 6.51 µM [activator, single point]
Fc1cccc(Cl)c1CNc1ccc(N2CCCC2)cc1	–	inconclusive: 11.2 µM [inhibitor, partial curve, poor fit]
Cc1ccc(C)c(S(=O)(=O)NCc2ccc(C(=O)N3CCCCCC3)cc2)c1	inactive: -22.2%	–
Oc1ccc(/C=N/Nc2ncnc3c2ncn3Cc2ccccc2)cc1O	–	inconclusive: 35.5 µM [inhibitor, single point]
COCC(C)n1c(C)cc(C(=O)COC(=O)c2n[nH]c3ccccc23)c1C (configuration not stated)	–	inconclusive: 4.47 µM [inhibitor, full curve]
CCOc1ccc(Br)cc1S(=O)(=O)Nc1cccc(S(=O)(=O)N(CC)CC)c1	–	inconclusive: 6.31 µM [inhibitor, single point]
COc1ccc(-n2c(=O)[nH]c3cc(C(=O)NCCc4ccc(Cl)cc4)ccc3c2=O)cc1OC	–	inconclusive: 11.2 µM [activator, single point]
Cc1cccc(-n2nc3c(c2NC(=O)c2ccco2)CS(=O)C3)c1C (configuration not stated)	inactive: -0.886%	–
CN(C)CC(O)c1ccc(C=Cc2ccc(Cl)cc2)cc1 (configuration not stated)	–	inconclusive: 35.5 µM [inhibitor, single point]
CCOC(=O)C1=C(C)NC(C)=C(C(=O)OCC)C1C(=O)OCC(=O)NCc1ccco1	–	inconclusive: 35.5 µM [inhibitor, single point]

SMILES	activity change, negative = inhibition	Potency
O=c1[nH]c(C2CCN(S(=O)(=O)c3ccccc3)CC2)nc2c1nnn2Cc1ccccc1	–	inconclusive: 0.447 µM [inhibitor, partial curve, poor fit]
CN1CCN(C(=O)Cn2c(-c3cccs3)cc3ccccc32)CC1	–	inconclusive: 35.5 µM [activator, single point]
Cc1ccc(N2C(=O)CS(=O)(=O)C23C(=O)N(Cc2ccccc2C)c2ccccc23)cc1Cl (configuration not stated)	–	inconclusive: 2.82 µM [inhibitor, partial curve, poor fit]
COc1cccc(NC(=O)c2cc(-c3ccncc3)nc3c(C)cc(C)cc23)c1	–	inconclusive: 11.2 µM [inhibitor, partial curve, poor fit]
O=C1C(C=Nc2ccccc2O)=C(O)c2ccccc21	–	inconclusive: 32.6 µM [inhibitor, single point]
OC(C#CCN1CCCC1)(c1ccccc1)c1cccc(F)c1 (configuration not stated)	–	inconclusive: 6.51 µM [activator, full curve, poor fit]
CCOC(=O)c1sc(=S)n(-c2cc(F)ccc2F)c1N	inactive: -7.54%	–
O=C(O)c1ccc(Oc2ccc([N+](=O)[O-])cc2)c([N+](=O)[O-])c1	inactive: 14.5%	–
CN1CC(=O)N(CC(=O)NCc2ccc3c(c2)OCO3)C1=O	inactive: 20.8%	–
Cc1cccc(NC(=O)C2CCN(S(=O)(=O)c3ccc4c(c3)CCCN4C(=O)C3CCC3)CC2)c1	–	inconclusive: 0.891 µM [inhibitor, full curve, poor fit]
O=C(Nc1ccc2c(c1)CCC2)c1cnn2c1NC(c1ccco1)CC2C(F)(F)F (configuration not stated)	inactive: -3.09%	–
N#C/C(=C\c1c[nH]c2ccc(Br)cc12)c1ccccn1	–	inconclusive: 10 µM [inhibitor, partial curve, poor fit]
CCc1cc(C(=O)N/N=C/c2ccc(O)cc2O)c2ccccc2n1	–	inconclusive: 2.24 µM [inhibitor, full curve, poor fit]
O=c1oc(Nc2cccc(Cl)c2)nc2ccccc12	–	inconclusive: 35.5 µM [inhibitor, single point]
O=C(NCCc1ccccc1)c1ccc(-c2ccc(F)cc2)o1	–	inconclusive: 35.5 µM [inhibitor, single point]
CC(=O)Nc1ccc(NC(=O)C(C)OC(=O)c2oc3ccccc3c2C)cc1 (configuration not stated)	–	inconclusive: 11.2 µM [inhibitor, partial curve, poor fit]
CCNC(=O)NC(=O)CSc1ccc2ccccc2c1	–	inconclusive: 35.5 µM [inhibitor, single point]
Oc1ccc2ccccc2c1C=Nc1ccccc1-c1nc2ccccc2[nH]1	–	inconclusive: 35.5 µM [inhibitor, single point]
Cc1nc2ccccc2nc1OCC(=O)NCc1ccc2c(c1)OCO2	–	inconclusive: 0.501 µM [activator, partial curve, poor fit]
CCOc1ccc(NC(=S)Nc2ccc(OCc3ccccc3)cc2)cc1	inactive: 5.68%	–
Cc1c(C(=O)N2CCCCC2)oc2ccc(S(=O)(=O)N3CC(C)CC(C)C3)cc12 (configuration not stated)	–	inconclusive: 14.1 µM [inhibitor, partial curve]
O=C(CCc1ccccc1O)N/N=C/c1ccc(Sc2cccc3cccnc23)o1	inactive: -13.1%	–
O=C(NCCc1ccccc1)c1ccc(NS(=O)(=O)c2ccc3[nH]c(=O)[nH]c3c2)cc1	–	inconclusive: 1.26 µM [activator, single point]

Reformatted with each value named: four of the compounds above
Cc1cc(C(=O)N2CCCC(C(=O)c3ccc4ccccc4c3)C2)nn1C (configuration not stated)
  Potency: inconclusive: 11.2 µM [inhibitor, partial curve, poor fit]
Cn1c(C(=O)OC(C(=O)NCc2ccco2)c2ccncc2)cc2sccc21 (configuration not stated)
  Potency: inconclusive: 1.16 µM [inhibitor, full curve, poor fit]
CCCNC(=O)c1ccc2c(c1)nc(C)n2-c1cccc(C)c1
  Potency: inconclusive: 7.94 µM [inhibitor, full curve, poor fit]
Cc1ccc2c(=O)c(C(=O)c3ccccc3)cn(CC(=O)Nc3ccc(C)c(Cl)c3)c2n1
  activity change, negative = inhibition: inactive: 3.32% [at 46.1 µM]

More structures.

SMILES	activity change, negative = inhibition	Potency
COc1ccc(/C=N/NC(=O)c2ccc3ccccc3c2)cc1OS(=O)(=O)c1ccc(NC(C)=O)cc1	–	inconclusive: 20.6 µM [inhibitor, single point]
COCc1cc(C)nc2sc3c(=O)n(-c4ccccc4C(F)(F)F)nnc3c12	inactive: 10.8% [at 46.1 µM]	–
O=C(Oc1cccc2cccnc12)c1cccc([N+](=O)[O-])c1	inactive: 7.33% [at 46.1 µM]	–
Cc1c(C(c2ccc(F)cc2)c2c(O)c3ccccc3oc2=O)c(=O)n(-c2ccccc2)n1C (configuration not stated)	–	inconclusive: 31.6 µM [activator, partial curve, poor fit]
CCCN1C/C(=C/c2ccc3c(c2)OCO3)C(=O)/C(=C/c2ccc3c(c2)OCO3)C1	–	inconclusive: 6.31 µM [inhibitor, partial curve, poor fit]
CC(C)C1=NN(C(=O)c2ccccc2)C(O)(C(C)(C)C)C1 (configuration not stated)	inactive: 11.7%	–
Cc1ccc(Nc2nnc(SCC(=O)Nc3ccccc3[N+](=O)[O-])s2)cc1	inactive: -9.85%	–
COc1ccc(CN2CCCC(CO)(Cc3ccc(F)cc3F)C2)cc1 (configuration not stated)	inactive: -41.5% [at 46.1 µM]	–
CCC(C)n1c(=N)c(C(=O)NC2CCCCC2)cc2c(=O)n3ccccc3nc21 (configuration not stated)	–	inconclusive: 5.62 µM [activator, single point]
CCOC(=O)c1c(NC(=O)CSc2nc3ccc(C)cc3[nH]2)sc2c1CC(C)(C)NC2(C)C	–	active: 10 µM
Cc1ccc(Cn2cccc(NC(=O)CCC3CCCC3)c2=O)cc1	–	inconclusive: 8.91 µM [inhibitor, partial curve, poor fit]
CSc1nsc(SCC(=O)Nc2ccc(OC(C)=O)cc2)n1	–	inconclusive: 0.562 µM [activator, full curve, poor fit]
CCOc1ccc(C(Nc2cccnc2)c2cc(Cl)c3cccnc3c2O)cc1 (configuration not stated)	–	inconclusive: 35.5 µM [inhibitor, single point]
CCN(C(=O)Cn1c(=O)n(Cc2ccccc2)c(=O)c2c1c1cc(OC)ccc1n2C)c1ccccc1	inactive: 6.72% [at 46.1 µM]	–
CCOC(=O)c1ccc(CS(=O)c2ccc(Cl)cc2)o1 (configuration not stated)	–	inconclusive: 1.3 µM [inhibitor, partial curve, poor fit]
Cc1ccccc1CNC(=O)c1ccc2nc(C(C)C)oc2c1	inactive: -3.03% [at 46.1 µM]	–
CCc1c(C)sc2nc(C(C)C)nc(SCC(=O)N3CCc4ccccc4C3)c12	–	active: 20.6 µM
Cc1ccc(O)c(NC(=O)c2cc(-c3ccccc3)on2)c1	–	inconclusive: 35.5 µM [inhibitor, single point]
O=C(CN1CCN(c2ccccc2)CC1)Nc1ccc(-n2cnnn2)cc1	inactive: -24.2%	–
Cn1cccc1/C=N/n1c(-c2ccccc2)n[nH]c1=S	–	inconclusive: 6.31 µM [inhibitor, partial curve]
CCc1ccc(NC(=O)C2C3C=CC(C4CC34)C2C(=O)O)cc1 (configuration not stated)	inactive: -18.3%	–
